Data as given in the supplement of paper PMC5949888.
± gives the standard deviation of the averaged measurements. Most values lie at the floor of the assay. Slopes are relative: functional sequences can read slightly below zero.

System: Saccharomyces cerevisiae PS128 hsf1 delta, HSF1(1-493) fusion
Experiment: growth estimate (transactivation domain function in HSF1 fusion, heat-shock survival) (a.u. (slope of normalised read count over time)); higher = stronger growth at 37°C, i.e. more transactivation activity
Conditions: library: random library

Substance | growth estimate
YHTRLLFMEGTHVVDPSPRC | < -0.25
YHVSVPCNCHGKLDIEFGTP | < -0.25
YIAEGNKVPVHKPGTELQIL | < -0.25
YICVIGREA | < -0.25
YIFGRVK | < -0.25
YIIARCCMVTRRRKIEYYEL | < -0.25
YIIG | < -0.25
YIIVEAAIALGSHGSIGVEI | < -0.25
YIKLKI | < -0.25
YILLEVCCISKQVQHVYMVQ | < -0.25
YILQILWLVAIIFT | < -0.25
YIRLN | < -0.25
YIRNQEA | < -0.25
YIRRVY | < -0.25
YISASIAEANVVVNWRRATR | < -0.25
YIVGIPSIRSLA | < -0.25
YIVLSIATVS | -0.246
YKATISNQEVVGCASSSPKE | -0.243
YKDRRSPGYALVV | < -0.25
YKESSRAARLLSNQTK | < -0.25
YKGLTVAVWRAGVLNKSGGG | < -0.25
YKIIRKEPWHFRL | < -0.25
YKMGRCGMRIRFTFAWVLMV | < -0.25
YKSHSPRRLR | < -0.25
YKVGLLRRQKV | < -0.25

Substance | growth estimate
YKVNESCNSELARGDHWLTD | < -0.25
YKVSCSRIC | < -0.25
YKWYKRDNGFVVQPRMCVVA | < -0.25
YKYT | < -0.25
YKYTWAVEDWAWGPPVCKRE | < -0.25
YLASSRTLTRREF | -0.246
YLCVGYQSFP | < -0.25
YLERQDDAQRGCVPRIVRVP | < -0.25
YLEWSASRVQETVSRIRLSR | < -0.25
YLGGRPNRADQDQL | < -0.25
YLGLPQISQAGVCDRGYWQP | < -0.25
YLGVPSSSYWATRWPRTRFP | < -0.25
YLHSPVRLRKVNLRWRSTVE | < -0.25
YLIAVFLCHVRMRSLSHLGV | < -0.25
YLILDSI | < -0.25
YLKASPRGGT | < -0.25
YLKRSFLVPPCV | < -0.25
YLLDAGSEWSGAVDRPPEMY | < -0.25
YLLMRPVCEPSTT | < -0.25
YLMFHVYSQCSGTKGTQDHA | < -0.25
YLPSIELSIDFVRRVPFPLS | -0.25
YLQCNSPECR | < -0.25
YLQRELCHR | < -0.25
YLRSGQNECY | < -0.25
YLRSLCPVTEGSEKG | < -0.25

Taken from above.
For growth estimate, YLQCNSPECR has < -0.25
For growth estimate, YLKRSFLVPPCV has < -0.25

Next results

Substance | growth estimate
YLRSLGNSGFKSLRSSISDL | < -0.25
YLSGRTSTGLVFVASGLAES | < -0.25
YLTSHGLTRHPMFYEILSVR | < -0.25
YLVTGIFSTRDRIRGVWAKI | -0.245
YMFWVSLTESQGNAWIVSRL | < -0.25
YMGEERLEGTFLAIYIQIKT | < -0.25
YMRKVVRAISHWNRPLESAE | < -0.25
YNDRLSLTRFINYSTHPWVT | < -0.25
YNFEQ | < -0.25
YNG | -0.243 ± 0.0093
YNGQSISVRGSLIN | < -0.25
YNPPWRCAQILRVWRV | < -0.25
YNRGGIKTQQGAGWYATVPR | -0.078
YPASASPDTPAGAAN | < -0.25
YPCIGDNIRRFSCSIVTP | < -0.25
YPCLAGRILKDHVRDCLQSD | -0.203
YPDRFNC | < -0.25
YPDRSGG | < -0.25
YPEWSERHGSAAAE | < -0.25
YPG | < -0.25
YPITTRVDLLLMIAQ | -0.246
YPLASGRAVTIIKGFGEPYR | < -0.25
YPLWDGVGGACGRMRD | < -0.25
YPRWYLEILTRWLFAVRTPV | < -0.25
YPSTLVQSWVIAVWSVTTKH | < -0.25

2 entries from above, field by field.
YNPPWRCAQILRVWRV
  growth estimate = < -0.25
YPSTLVQSWVIAVWSVTTKH
  growth estimate = < -0.25

Additional results

Substance | growth estimate
YPTVPGTCWGCRVELLVSRR | < -0.25
YPVLGPHLPTGYSTMQTTSC | < -0.25
YPVVIKERSGP | < -0.25
YPWLFRRPSRRHARIQRD | < -0.25
YQAKARAAR | < -0.25
YQAM | < -0.25
YQATRGRWPSVL | < -0.25
YQERPDGFTWYGVQITCKRH | -0.246
YQIHVLTMDKPARVPISRSG | < -0.25
YQIY | -0.229
YQNYSVVGISPGVISMAFH | < -0.25
YQPATGLLADVPDVESVRPL | < -0.25
YQRESRVN | < -0.25
YQRGVRFVIRRGPQPRALVH | < -0.25
YQTPPWTTHTRSIFCNGIDC | < -0.25
YQTTNLRRTAVGPRGVWLQS | < -0.25
YRCYYTLAILHGVTSTNPST | < -0.25
YREAVKGGTFLPCWRVAPKP | < -0.25
YREGQAHARMELSVLGG | < -0.25
YREGRASESMMFIFQGLAPP | < -0.25
YRGLALRWD | < -0.25
YRGRLLNVTYC | < -0.25
YRHKHFKRQNVNVYQCVNPT | < -0.25
YRIRRIGLGVNSEHAPGSGE | < -0.25
YRLAQCNAMRG | < -0.25

An excerpt of these results, with tabs.
Substance	growth estimate
YQRESRVN	< -0.25
YQRGVRFVIRRGPQPRALVH	< -0.25

Next part:

Substance | growth estimate
YRLRPSYFLSRLTVASTHVS | < -0.25
YRLYNFLSKLWPQLAYTWSN | -0.232
YRPDQYDMIRFVSERVRQ | < -0.25
YRPVEEAFLSGNGPWPQHNR | < -0.25
YRQIGFESIAPITVR | < -0.25
YRRSQEDW | < -0.25
YRSCSLSNEEGLVRRVSMHA | < -0.25
YRSELSKHAGRPMPNWAPRL | < -0.25
YRSFIPSVGWGVLCYYM | < -0.25
YRSHTPIQLVTANRPVASTR | < -0.25
YRSTSCGSVNWL | < -0.25
YRSVLSCTPIVLETRGSWVA | < -0.25
YRTRICSPVLVMRVHCCNE | < -0.25
YRVLERSG | < -0.25
YRVR | < -0.25
YRVRGL | < -0.25
YRYVLVKDQVKAGLLAIASG | -0.176
YSACIGGQSCVSLTEIMPVG | < -0.25
YSAGVSVFLLMIAWSVIKNG | < -0.25
YSDSATSLSGVEFVLVSHNA | < -0.25
YSFLAQQRYRIRCLSRSDSD | < -0.25
YSHSSY | < -0.25
YSIVVHRNCRANAGCSS | < -0.25
YSKCGYVVGINTRTCSQRLP | < -0.25
YSKELA | < -0.25

Substance | growth estimate
YSLESKPWASLY | < -0.25
YSNVNVRVVSKDRHSMGASI | < -0.25
YSPDERRHEGGKTETW | < -0.25
YSQGESEQRNRQCSWLVP | < -0.25
YSQTAWNSLFILRL | < -0.25
YSRAGSFLTLYVVSI | < -0.25
YSRAH | < -0.25
YSRDWRD | < -0.25
YSRSRARSRTAEGRIDQGLG | < -0.25
YSRVC | < -0.25
YSSALISNAYEVYVSLNLWL | < -0.25
YSSIGRT | < -0.25
YSSQSLRWNIVTVLDVEIHS | < -0.25
YSSRAQESPRFTARTLGGIY | < -0.25
YSSVTVW | < -0.25
YSTATPRANGGVSSWQPVLE | < -0.25
YSTLSDRKCVAHRDWAKLCL | < -0.25
YSVVIPYAAKIR | -0.246
YSY | < -0.25
YSYSAQAGLALMRVASVSVR | < -0.25
YTAGATGNGSD | < -0.25
YTAVDRLL | < -0.25
YTCSGRWVSNVMIGL | < -0.25
YTCWQPHSR | < -0.25
YTDLSGLSAPV | < -0.25

Substance | growth estimate
YTFLLTKRGPAGVPLFNRKC | < -0.25
YTFRCSSV | < -0.25
YTICIPSPPLVLNISAVTME | < -0.25
YTLAGVWPNSFAK | < -0.25
YTLSSELNYINHVYPGSESA | -0.193
YTPGPDISSTARDENNTVLS | < -0.25
YTQLRQSTYTRRHILGLILP | < -0.25
YTQLVKGFSWVCAACHRAHK | < -0.25
YTSTAV | < -0.25
YTTGWGLPSKRPMGQQLTRD | -0.231
YTVHCQNTYFLCS | < -0.25
YVALVARTSCSDRSTNPSEL | < -0.25
YVDD | < -0.25
YVGLVDLPCNLAPSA | -0.231
YVGSFCLSSLAILCFYKQSD | < -0.25
YVHHLPG | < -0.25
YVIKQL | < -0.25
YVLAHVSESWKRSVLIPLTS | < -0.25
YVLGK | < -0.25
YVLIETRVSIQAVA | -0.25
YVLLRYK | < -0.25
YVNTH | < -0.25
YVPGGGESCSSGDGELWGEN | < -0.25
YVPSYIESSHQDIGSKRKYC | < -0.25
YVRQKLSIAGKSPG | < -0.25

Substance | growth estimate
YVSLLLTYSGWRYVIFTEFV | < -0.25
YVSTARTVQGAREETLVMIT | < -0.25
YVWLRKVLYRSLHIFGRNRV | -0.192
YVYLTNTPMEDGRIYGYRLQ | < -0.25
YVYRDAHELSGAHRLSN | < -0.25
YWCSSLEGVPDT | < -0.25
YWEKQRRRPRAGEPGVADLR | < -0.25
YWFSSRSASVLWWLMITWTI | < -0.25
YWICQSDKFP | < -0.25
YWNVVLYTTKRPRRSARPIS | < -0.25
YWSL | < -0.253
YWTCHLLRRWALNSLPWALS | < -0.25
YWTI | < -0.25
YWTNSLCQVC | < -0.25
YWVVASDGATTGVGVSYIRG | < -0.25
YWWV | < -0.25
YYDYAVCELVC | < -0.25
YYGAGPALYYGNYRSRVVSS | < -0.25
YYGEVV | < -0.25
YYLPEGQARISTAITVDFFG | -0.246
YYPL | < -0.25
YYRFHQLGAQYFTTSVTIGP | < -0.25
